The supplement of paper PMC5949888
± gives the standard deviation of the averaged measurements. Most values lie at the floor of the assay. Slopes are relative: functional sequences can read slightly below zero.

Tested on: Saccharomyces cerevisiae PS128 hsf1 delta, HSF1(1-493) fusion
Assay: growth estimate (transactivation domain function in HSF1 fusion, heat-shock survival) (a.u. (slope of normalised read count over time)); higher = stronger growth at 37°C, i.e. more transactivation activity
Details: library: random library
Protocol: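 Random 60-nt DNA library encoding peptides of up to 20 aa, fused to the C-terminus of yeast HSF1 residues 1-493 (C-terminal TAD deleted) and expressed from the native HSF1 promoter on a CEN plasmid in hsf1-deleted S. cerevisiae PS128. Cells were selected at 37°C on -trp 5-FOA plates for 0, 2, 4, 6 and 8 days and amplicons were sequenced. Growth estimate is the slope of a robust linear fit of total-sum-normalised read counts (normalised to the first time point) over time, using at least 2 replicates. Sequences are classed functional (TAD activity) above a threshold of -0.13, set from stop-codon control sequences.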

Substance | growth estimate
GTRSRRAERSGTLMVSLLSA | < -0.25
GTRSVKQGF | < -0.25
GTSAGIVQDTRFALNWVSCQ | < -0.25
GTSETGNER | < -0.25
GTSPRRLCLAHIRQ | < -0.25
GTSRCNLLGALWYIELA | < -0.25
GTSRNGPSKKTVRRWLPPLP | < -0.25
GTSSFEEKALWQRVAVGSYR | < -0.25
GTTFHRVVGAGCYLEGPSFF | < -0.25
GTTRCPDTHKVREQGPWAIL | < -0.25
GTVCHYHDQDSSDRVTRSD | < -0.25
GTVFV | < -0.25
GTWAISMA | < -0.25
GTYLYIGGQAQLLIRGPQPA | < -0.25
GVADLCVRWLQLHIMLA | < -0.25
GVAKGNYDGN | -0.246
GVALERSQRRLVGNSQ | < -0.25
GVAN | < -0.25
GVAQGRLMSYLLSAPSCKPQ | < -0.25
GVARAGFLGARTRWTGAQQG | < -0.25
GVASDASDTCVWYSGELTQR | < -0.25
GVC | < -0.25
GVCFDS | < -0.25
GVCGREDSRIRVI | < -0.25

Substance | growth estimate
GVCSCVKSRPTASASLSVLF | < -0.25
GVCTGHGPSEAAC | -0.235
GVDCMHTNTLGVILLLPLRM | < -0.25
GVDPGYDCKGIRSDPRRATH | < -0.25
GVDQGFIYGHLIAESVSGLV | < -0.25
GVDQRLFDALPTEITKQTHQ | < -0.25
GVERARSQSNNEFGPYRSVS | < -0.25
GVERLPVGSVGFSYNYNVLY | < -0.25
GVG | -0.169 ± 0.12
GVGDYQSVTSFSQSSLNKI | -0.246
GVGGG | < -0.25
GVGGRLPRVQLRALAQPRGT | < -0.25
GVGLRGCGGAFHDFVTSYGE | < -0.25
GVGLVHVEDIIPMCKGSSGR | < -0.25
GVGMTIINLC | < -0.25
GVGR | < -0.25
GVGRIGLISQVLPRVHEGRP | -0.243
GVGSARSFPGRGLSEFASQP | < -0.25
GVGVRVPALFLL | < -0.25
GVGVSWKYVNRWWGSFDRAV | < -0.25
GVHCWLPLQSCVWQ | < -0.25
GVHQRRAAPTSRTGRYAYAP | < -0.25
GVHVACAQLQSPFCDSSRHH | < -0.25
GVIARVSTRRRAVNYGSSHR | < -0.25

Substance | growth estimate
GVIELCYEVRIQ | < -0.25
GVIKSM | < -0.25
GVISGFNLKRILISSLMSSA | < -0.25
GVISGWPGGGM | < -0.25
GVKELWSSYQCRHRIPISYC | < -0.25
GVKFASQDIL | < -0.25
GVKSLAPPTGRWFHGAKLWG | < -0.25
GVKT | < -0.25
GVLFAVGLALLKSAGSLSVP | < -0.25
GVLFCSGSDLKK | < -0.25
GVLFSSLSLTMVPLPACDRS | < -0.25
GVLLAGVCDID | < -0.25
GVLRLNSMNEPGYGKNPVVG | < -0.25
GVNIIM | < -0.25
GVNLEGSSSIRA | < -0.25
GVNNQASAHLLLTCRKAQYL | < -0.25
GVNSMGPSQSGLILPRTLAK | -0.246
GVPCFDAFSAARRYAVSK | < -0.25
GVPCFDRTCSGT | < -0.25
GVPEVNGL | < -0.25
GVPLSPLFWPEMRHVHRTRK | < -0.25
GVPTFEHSLYSLASHQ | < -0.25
GVQPLEGKNRYSRWVRLERR | < -0.25
GVRAGIRAVHGQCYQALRTA | < -0.25

Retrieved one by one from the list above (6):
Substance | growth estimate
GVPCFDAFSAARRYAVSK | < -0.25
GVCFDS | < -0.25
GVPLSPLFWPEMRHVHRTRK | < -0.25
GVNIIM | < -0.25
GVDQGFIYGHLIAESVSGLV | < -0.25
GVKSLAPPTGRWFHGAKLWG | < -0.25

Further records

Substance | growth estimate
GVRAKAF | < -0.25
GVRVCSCM | < -0.25
GVSD | < -0.25
GVSDAGALALHALLVEPPAV | < -0.25
GVSGLLIFGVSRFGPLLGVA | < -0.25
GVSHQRPVALRHGLRILRVR | -0.208
GVSKFWTVIR | < -0.25
GVSLGSNGAILRPVALSSDP | < -0.25
GVSPQDYLGRTCFTKPSFGP | < -0.25
GVSRCLELPAEA | < -0.25
GVSRDQESV | < -0.25
GVSRVHGHVAHATRAAGDFT | < -0.25
GVSTVWVMNPSRSILAFLED | -0.235
GVSWDVQHSCE | < -0.25
GVTAAQSPRIL | < -0.25
GVTGLRVLSHPRSHRRRAMR | < -0.25
GVTGSLSYA | < -0.25
GVTQRARNLMQ | < -0.25
GVTRFIGSRYSRFFA | < -0.25
GVWRSRHWWRVLRMDSMGIV | < -0.25
GVYSLSTLCFRVRDHQCTSQ | < -0.25
GWAIFITWTYHGGCQACGPL | < -0.25
